From patent US8242251B2, “Unsymmetrical cyanine dimer compounds and their application” (Life Technologies Corporation, priority 2003, dated 2012)
Some entries share one result that the patent states for a list of compounds.

System: RNA or DNA
Assay: Emission spectra of compounds bound to RNA or DNA in solution (Example 35)
Type: binding
Conditions: compound 1-2 μM, RNA and DNA about 60 μg/mL, excited at 470 nm

Compound	increase in signal intensity when bound to RNA compared to DNA
C[n+]1c(/C=C2\C=C(N3CCN(C4=C/C(=C\c5sc6ccccc6[n+]5C)c5ccccc5N4c4ccccc4)CC3)N(c3ccccc3)c3ccccc32)sc2ccccc21.[Cl-].[Cl-] [Compound 6]	4- to 8 fold
COc1ccc2c(c1)N(c1ccccc1)C(N1CCN(C3=C/C(=C\c4sc5ccccc5[n+]4C)c4ccc(OC)cc4N3c3ccccc3)CC1)=C/C2=C\c1sc2ccccc2[n+]1C.[I-].[I-] [Compound 19]	4- to 8 fold
